Results are given in words; binding and its absence hold for the method and conditions named. Binding seen in cells or lysates may run through a third protein. Some entries that bind do so weakly or less than the wild type. Where a sequence is shown, tags or fusion partners need not be part of it.
T1: Flag-TGFβRI (TGF-β receptor I), P36897
T1 chain: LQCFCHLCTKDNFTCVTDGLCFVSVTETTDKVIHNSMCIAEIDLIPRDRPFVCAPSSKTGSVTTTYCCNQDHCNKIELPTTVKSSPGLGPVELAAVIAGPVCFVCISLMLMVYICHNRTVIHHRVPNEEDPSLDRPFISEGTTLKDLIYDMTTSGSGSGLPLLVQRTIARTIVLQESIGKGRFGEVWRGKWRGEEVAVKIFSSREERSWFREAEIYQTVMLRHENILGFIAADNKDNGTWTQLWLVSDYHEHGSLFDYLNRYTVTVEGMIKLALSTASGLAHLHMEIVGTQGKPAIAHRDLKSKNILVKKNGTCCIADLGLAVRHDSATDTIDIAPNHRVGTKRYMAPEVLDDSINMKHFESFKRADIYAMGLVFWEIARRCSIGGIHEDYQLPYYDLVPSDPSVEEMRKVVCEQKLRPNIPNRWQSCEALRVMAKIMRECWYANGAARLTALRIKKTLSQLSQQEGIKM


Experiments:
[1] = target: T1, Flag-TGFβRI (TGF-β receptor I), P36897; experiment: co-IP; Flag-TGFβRI immunoprecipitates and HA-SMAD3 immunoprecipitates from lysates of PANC-1 and BxPC-3 cells, western blot; 5 ng/ml TGF-β, 15 min; sh-ctrl or circEIF3I knockdown, also with ectopic circEIF3I-WT, circ-mut-SMAD3 or circ-mut-AP2A1; details: remark: other sources report otherwise
[2] = target: HA-SMAD3, P84022; experiment: as above; details: remark: other sources report otherwise

Binder | binding [1] | binding [2]
HA-SMAD3, P84022 1-425 (protein) MSSILPFTPPIVKRLLGWKKGEQNGQEEKWCEKAVKSLVKKLKKTGQLDELEKAITTQNVNTKCITIPRSLDGRLQVSHRKGLPHVIYCRLWRWPDLHSHHELRAMELCEFAFNMKKDEVCVNPYHYQRVETPVLPPVLVPRHTEIPAEFPPLDDYSHSIPENTNFPAGIEPQSNIPETPPPGYLSEDGETSDHQMNHSMDAGSPNLSPNPMSPAHNNLDLQPVTYCEPAFWCSISYYELNQRVGETFHASQPSMTVDGFTDPSNSERFCLGLLSNVNRNAAVELTRRHIGRGVRLYYIGGEVFAECLSDSAIFVQSPNCNQRYGWHPATVCKIPPGCNLKIFNNQEFAALLAQSVNQGFEAVYQLTRMCTIRMSFVKGWGAEYRRQTVTSTPCWIELHLNGPLQWLDKVLTQMGSPSIRCSSVS | binds | –
Flag-TGFβRI (TGF-β receptor I), P36897 34-503 (receptor) LQCFCHLCTKDNFTCVTDGLCFVSVTETTDKVIHNSMCIAEIDLIPRDRPFVCAPSSKTGSVTTTYCCNQDHCNKIELPTTVKSSPGLGPVELAAVIAGPVCFVCISLMLMVYICHNRTVIHHRVPNEEDPSLDRPFISEGTTLKDLIYDMTTSGSGSGLPLLVQRTIARTIVLQESIGKGRFGEVWRGKWRGEEVAVKIFSSREERSWFREAEIYQTVMLRHENILGFIAADNKDNGTWTQLWLVSDYHEHGSLFDYLNRYTVTVEGMIKLALSTASGLAHLHMEIVGTQGKPAIAHRDLKSKNILVKKNGTCCIADLGLAVRHDSATDTIDIAPNHRVGTKRYMAPEVLDDSINMKHFESFKRADIYAMGLVFWEIARRCSIGGIHEDYQLPYYDLVPSDPSVEEMRKVVCEQKLRPNIPNRWQSCEALRVMAKIMRECWYANGAARLTALRIKKTLSQLSQQEGIKM | – | binds

Source: publication PMC10492306
